# Measurements taken from the supplement of paper PMC10032668.
# Sequences of proteins named here, by UniProt entry; tags and fusion partners are left off.
# CCNB1, P14635, UniProt P14635, whole entry: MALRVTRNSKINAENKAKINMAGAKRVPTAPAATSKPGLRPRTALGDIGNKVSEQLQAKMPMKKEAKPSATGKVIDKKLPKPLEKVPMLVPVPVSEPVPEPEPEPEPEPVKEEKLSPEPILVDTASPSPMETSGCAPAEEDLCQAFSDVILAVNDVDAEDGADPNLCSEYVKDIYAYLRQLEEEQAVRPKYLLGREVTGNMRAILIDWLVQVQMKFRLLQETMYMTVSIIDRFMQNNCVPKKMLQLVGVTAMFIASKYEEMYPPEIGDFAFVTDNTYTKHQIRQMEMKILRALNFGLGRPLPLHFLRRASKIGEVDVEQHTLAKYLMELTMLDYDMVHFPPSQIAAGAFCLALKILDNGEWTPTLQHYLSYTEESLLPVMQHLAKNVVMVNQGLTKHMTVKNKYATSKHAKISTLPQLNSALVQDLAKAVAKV
# CSNK2B, P67870, UniProt P67870, whole entry: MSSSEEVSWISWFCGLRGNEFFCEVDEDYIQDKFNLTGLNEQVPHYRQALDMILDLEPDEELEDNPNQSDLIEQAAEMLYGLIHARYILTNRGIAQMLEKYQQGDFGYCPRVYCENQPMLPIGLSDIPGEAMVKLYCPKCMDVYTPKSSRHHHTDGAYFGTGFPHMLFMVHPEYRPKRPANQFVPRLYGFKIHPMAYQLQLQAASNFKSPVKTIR
# IK, Q13123, UniProt Q13123, whole entry: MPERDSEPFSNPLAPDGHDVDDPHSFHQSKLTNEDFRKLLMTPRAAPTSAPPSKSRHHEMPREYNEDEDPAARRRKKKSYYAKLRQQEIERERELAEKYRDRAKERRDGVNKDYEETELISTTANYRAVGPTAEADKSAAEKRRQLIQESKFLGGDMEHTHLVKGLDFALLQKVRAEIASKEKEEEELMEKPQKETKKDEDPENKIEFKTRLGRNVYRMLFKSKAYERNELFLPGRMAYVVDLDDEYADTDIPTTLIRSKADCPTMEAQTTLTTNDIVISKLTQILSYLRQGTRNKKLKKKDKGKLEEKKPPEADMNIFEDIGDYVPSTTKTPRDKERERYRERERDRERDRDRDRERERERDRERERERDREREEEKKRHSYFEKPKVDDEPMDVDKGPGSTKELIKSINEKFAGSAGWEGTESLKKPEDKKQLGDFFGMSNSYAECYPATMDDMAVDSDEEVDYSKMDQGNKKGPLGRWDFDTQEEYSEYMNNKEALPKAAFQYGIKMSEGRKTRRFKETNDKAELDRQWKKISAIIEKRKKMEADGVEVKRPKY
# NCAPD2, Q15021, UniProt Q15021, whole entry: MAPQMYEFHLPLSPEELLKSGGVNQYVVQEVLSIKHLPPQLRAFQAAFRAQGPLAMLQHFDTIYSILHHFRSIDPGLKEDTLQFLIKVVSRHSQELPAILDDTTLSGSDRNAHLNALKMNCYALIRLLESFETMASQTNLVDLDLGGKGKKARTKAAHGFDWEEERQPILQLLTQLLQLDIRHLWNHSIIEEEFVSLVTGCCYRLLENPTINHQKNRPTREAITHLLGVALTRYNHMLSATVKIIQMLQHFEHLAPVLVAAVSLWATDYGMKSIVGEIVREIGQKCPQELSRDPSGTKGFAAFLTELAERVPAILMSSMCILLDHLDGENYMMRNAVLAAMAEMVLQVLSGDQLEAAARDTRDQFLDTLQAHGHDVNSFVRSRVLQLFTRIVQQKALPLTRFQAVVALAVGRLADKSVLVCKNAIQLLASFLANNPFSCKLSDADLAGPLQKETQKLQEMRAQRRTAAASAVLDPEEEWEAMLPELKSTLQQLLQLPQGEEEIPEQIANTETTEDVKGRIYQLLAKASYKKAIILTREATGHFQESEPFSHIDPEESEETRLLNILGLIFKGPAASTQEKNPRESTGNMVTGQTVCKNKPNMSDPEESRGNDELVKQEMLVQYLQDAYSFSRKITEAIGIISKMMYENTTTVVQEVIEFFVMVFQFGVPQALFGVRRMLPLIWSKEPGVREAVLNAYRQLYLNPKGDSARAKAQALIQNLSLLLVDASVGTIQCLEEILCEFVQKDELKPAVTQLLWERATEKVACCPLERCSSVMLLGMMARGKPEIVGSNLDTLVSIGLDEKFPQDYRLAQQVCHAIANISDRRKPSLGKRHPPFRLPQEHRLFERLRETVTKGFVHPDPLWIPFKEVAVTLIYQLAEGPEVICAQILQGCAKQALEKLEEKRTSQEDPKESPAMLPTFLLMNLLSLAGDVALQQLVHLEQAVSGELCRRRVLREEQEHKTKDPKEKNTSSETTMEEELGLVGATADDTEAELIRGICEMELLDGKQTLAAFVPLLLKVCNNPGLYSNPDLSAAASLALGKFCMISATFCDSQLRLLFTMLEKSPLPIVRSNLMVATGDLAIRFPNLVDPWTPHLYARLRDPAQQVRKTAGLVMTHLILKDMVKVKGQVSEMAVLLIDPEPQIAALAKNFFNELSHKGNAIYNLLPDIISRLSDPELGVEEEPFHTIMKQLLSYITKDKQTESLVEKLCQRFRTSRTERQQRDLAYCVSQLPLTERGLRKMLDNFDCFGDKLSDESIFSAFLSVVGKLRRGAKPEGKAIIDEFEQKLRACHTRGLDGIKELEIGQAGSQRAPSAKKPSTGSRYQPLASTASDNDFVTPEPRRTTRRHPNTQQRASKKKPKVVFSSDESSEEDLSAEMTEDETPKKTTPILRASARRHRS
# SNRPD1, P62314, UniProt P62314, whole entry: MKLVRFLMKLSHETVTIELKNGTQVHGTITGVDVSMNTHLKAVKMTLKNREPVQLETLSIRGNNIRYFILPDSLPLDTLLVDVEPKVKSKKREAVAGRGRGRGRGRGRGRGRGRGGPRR
# TPM4, P67936, UniProt P67936, whole entry: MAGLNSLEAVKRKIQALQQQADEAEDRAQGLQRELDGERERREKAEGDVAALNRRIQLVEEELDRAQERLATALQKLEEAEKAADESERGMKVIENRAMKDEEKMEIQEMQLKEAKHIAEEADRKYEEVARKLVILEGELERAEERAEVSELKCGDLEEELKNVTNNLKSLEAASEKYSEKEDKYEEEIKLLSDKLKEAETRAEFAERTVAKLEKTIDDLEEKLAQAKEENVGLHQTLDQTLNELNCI
# RCC2, Q9P258, UniProt Q9P258, whole entry: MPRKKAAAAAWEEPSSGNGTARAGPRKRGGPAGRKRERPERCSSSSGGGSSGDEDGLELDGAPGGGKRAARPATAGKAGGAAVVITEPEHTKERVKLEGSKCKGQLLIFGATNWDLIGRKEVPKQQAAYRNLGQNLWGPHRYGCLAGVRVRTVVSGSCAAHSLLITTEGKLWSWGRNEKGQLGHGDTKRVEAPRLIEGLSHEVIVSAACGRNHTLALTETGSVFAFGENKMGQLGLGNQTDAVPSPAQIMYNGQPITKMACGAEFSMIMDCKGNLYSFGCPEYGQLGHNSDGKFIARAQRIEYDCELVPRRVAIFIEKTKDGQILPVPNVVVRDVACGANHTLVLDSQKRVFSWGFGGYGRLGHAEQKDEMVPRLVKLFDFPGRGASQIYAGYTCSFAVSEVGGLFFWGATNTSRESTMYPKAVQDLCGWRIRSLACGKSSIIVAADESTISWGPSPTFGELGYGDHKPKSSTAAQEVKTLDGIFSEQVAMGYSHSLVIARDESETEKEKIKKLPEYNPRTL
# This is one part of the list. The list holds hits alone, and they repeat only in part.
# Legend:
# Assay in all cases: PRISMA enrichment of interactor (LFQ) in peptide spot vs all other peptide spots (log2 fold change); higher = stronger / more specific binding of the interactor to the peptide
# ACOT9, Q9Y305 = molecular target: ACOT9, Q9Y305
# Experimental: (§1)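 PRISMA: 15-aa overlapping tiles (offset 8 aa) of 60 microproteins, plus SOS1/GLUT1 control peptides, were spot-synthesized on cellulose membranes in triplicate. Membranes were incubated with benzonase-treated HEK293T lysate, and bound proteins were identified by LC-MS/MS with LFQ. Enrichment is the log2 fold change of each protein in one spot versus all other spots. Only interactors passing the significance cutoff are listed.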
# ARMC6, Q6NXE6 = molecular target: ARMC6, Q6NXE6
# Experimental: as §1
# ATP5PF, P18859 = molecular target: ATP5PF, P18859
# Experimental: as §1
# BAZ1A, Q9NRL2 = molecular target: BAZ1A, Q9NRL2
# Experimental: as §1
# CCNB1, P14635 = molecular target: CCNB1, P14635
# Experimental: as §1
# CMPK1, P30085 = molecular target: CMPK1, P30085
# Experimental: as §1
# CSNK2A1, P68400 = molecular target: CSNK2A1, P68400
# Experimental: as §1
# CSNK2B, P67870 = molecular target: CSNK2B, P67870
# Experimental: as §1
# DCUN1D5, Q9BTE7 = molecular target: DCUN1D5, Q9BTE7
# Experimental: as §1
# DDX47, Q9H0S4 = molecular target: DDX47, Q9H0S4
# Experimental: as §1
# DSG2, Q14126 = molecular target: DSG2, Q14126
# Experimental: as §1
# ENSA, O43768 = molecular target: ENSA, O43768
# Experimental: as §1
# GPATCH4, Q5T3I0 = molecular target: GPATCH4, Q5T3I0
# Experimental: as §1
# IK, Q13123 = molecular target: IK, Q13123
# Experimental: as §1
# KTN1, Q86UP2 = molecular target: KTN1, Q86UP2
# Experimental: as §1
# LLPH, Q9BRT6 = molecular target: LLPH, Q9BRT6
# Experimental: as §1
# LPCAT3, Q6P1A2 = molecular target: LPCAT3, Q6P1A2
# Experimental: as §1
# MAP1B, P46821 = molecular target: MAP1B, P46821
# Experimental: as §1
# METAP1, P53582 = molecular target: METAP1, P53582
# Experimental: as §1
# MRPS14, O60783 = molecular target: MRPS14, O60783
# Experimental: as §1
# MRPS33, Q9Y291 = molecular target: MRPS33, Q9Y291
# Experimental: as §1
# NCAPD2, Q15021 = molecular target: NCAPD2, Q15021
# Experimental: as §1
# NFS1, Q9Y697 = molecular target: NFS1, Q9Y697
# Experimental: as §1
# NUP43, Q8NFH3 = molecular target: NUP43, Q8NFH3
# Experimental: as §1
# POLR2A, P24928 = molecular target: POLR2A, P24928
# Experimental: as §1
# PPAN-P2RY11 = molecular target: PPAN-P2RY11
# Experimental: as §1
# PRPF40A, O75400 = molecular target: PRPF40A, O75400
# Experimental: as §1
# REPIN1, Q9BWE0 = molecular target: REPIN1, Q9BWE0
# Experimental: as §1
# RPL7L1, Q6DKI1 = molecular target: RPL7L1, Q6DKI1
# Experimental: as §1
# SAMHD1, Q9Y3Z3 = molecular target: SAMHD1, Q9Y3Z3
# Experimental: as §1
# SBDS, Q9Y3A5 = molecular target: SBDS, Q9Y3A5
# Experimental: as §1
# SLC35B2, Q8TB61 = molecular target: SLC35B2, Q8TB61
# Experimental: as §1
# SMC3, Q9UQE7 = molecular target: SMC3, Q9UQE7
# Experimental: as §1
# SMIM12, Q96EX1 = molecular target: SMIM12, Q96EX1
# Experimental: as §1
# SNRPD1, P62314 = molecular target: SNRPD1, P62314
# Experimental: as §1
# TFB2M, Q9H5Q4 = molecular target: TFB2M, Q9H5Q4
# Experimental: as §1
# TIMM8B, Q9Y5J9 = molecular target: TIMM8B, Q9Y5J9
# Experimental: as §1
# TNPO3, Q9Y5L0 = molecular target: TNPO3, Q9Y5L0
# Experimental: as §1
# TPM4, P67936 = molecular target: TPM4, P67936
# Experimental: as §1
# TXLNG, Q9NUQ3 = molecular target: TXLNG, Q9NUQ3
# Experimental: as §1
# URB2, Q14146 = molecular target: URB2, Q14146
# Experimental: as §1
# USP7, Q93009 = molecular target: USP7, Q93009
# Experimental: as §1
# CBX3, Q13185 = molecular target: CBX3, Q13185
# Experimental: as §1
# CSDE1, O75534 = molecular target: CSDE1, O75534
# Experimental: as §1
# DIS3, Q9Y2L1 = molecular target: DIS3, Q9Y2L1
# Experimental: as §1
# FOCAD, Q5VW36 = molecular target: FOCAD, Q5VW36
# Experimental: as §1
# HAT1, O14929 = molecular target: HAT1, O14929
# Experimental: as §1
# PFKM, P08237 = molecular target: PFKM, P08237
# Experimental: as §1
# [1] = substrate: PPIF, P30405
# Experimental: as §1
# PYCR1, P32322 = molecular target: PYCR1, P32322
# Experimental: as §1
# RCC2, Q9P258 = molecular target: RCC2, Q9P258
# Experimental: as §1
# SPCS2, Q15005 = molecular target: SPCS2, Q15005
# Experimental: as §1
# ZNF317, Q96PQ6 = molecular target: ZNF317, Q96PQ6
# Experimental: as §1
binder,measurement,setting,value
SELVLPQSQAGKPLT [NAV2-AS2_2],PRISMA enrichment of interactor (log2),"ACOT9, Q9Y305",4.31
same,PRISMA enrichment of interactor (log2),"ARMC6, Q6NXE6",6.7
same,PRISMA enrichment of interactor (log2),"ATP5PF, P18859",4.46
same,PRISMA enrichment of interactor (log2),"BAZ1A, Q9NRL2",5.21
same,PRISMA enrichment of interactor (log2),"CCNB1, P14635",4.19
same,PRISMA enrichment of interactor (log2),"CMPK1, P30085",4.52
same,PRISMA enrichment of interactor (log2),"CSNK2A1, P68400",5.1
same,PRISMA enrichment of interactor (log2),"CSNK2B, P67870",4.46
same,PRISMA enrichment of interactor (log2),"DCUN1D5, Q9BTE7",5.07
same,PRISMA enrichment of interactor (log2),"DDX47, Q9H0S4",10.8
same,PRISMA enrichment of interactor (log2),"DSG2, Q14126",4.61
same,PRISMA enrichment of interactor (log2),"ENSA, O43768",4.63
same,PRISMA enrichment of interactor (log2),"GPATCH4, Q5T3I0",4.82
same,PRISMA enrichment of interactor (log2),"IK, Q13123",5.85
same,PRISMA enrichment of interactor (log2),"KTN1, Q86UP2",4.18
same,PRISMA enrichment of interactor (log2),"LLPH, Q9BRT6",4.64
same,PRISMA enrichment of interactor (log2),"LPCAT3, Q6P1A2",4.36
same,PRISMA enrichment of interactor (log2),"MAP1B, P46821",4.78
same,PRISMA enrichment of interactor (log2),"METAP1, P53582",5.35
same,PRISMA enrichment of interactor (log2),"MRPS14, O60783",4.97
same,PRISMA enrichment of interactor (log2),"MRPS33, Q9Y291",4.29
same,PRISMA enrichment of interactor (log2),"NCAPD2, Q15021",5.08
same,PRISMA enrichment of interactor (log2),"NFS1, Q9Y697",4.48
same,PRISMA enrichment of interactor (log2),"NUP43, Q8NFH3",5.23
same,PRISMA enrichment of interactor (log2),"POLR2A, P24928",5.12
same,PRISMA enrichment of interactor (log2),PPAN-P2RY11,4.6
same,PRISMA enrichment of interactor (log2),"PRPF40A, O75400",6.08
same,PRISMA enrichment of interactor (log2),"REPIN1, Q9BWE0",4.24
same,PRISMA enrichment of interactor (log2),"RPL7L1, Q6DKI1",4.07
same,PRISMA enrichment of interactor (log2),"SAMHD1, Q9Y3Z3",3.92
same,PRISMA enrichment of interactor (log2),"SBDS, Q9Y3A5",4.61
same,PRISMA enrichment of interactor (log2),"SLC35B2, Q8TB61",6.27
same,PRISMA enrichment of interactor (log2),"SMC3, Q9UQE7",5.17
same,PRISMA enrichment of interactor (log2),"SMIM12, Q96EX1",4.7
same,PRISMA enrichment of interactor (log2),"SNRPD1, P62314",4.88
same,PRISMA enrichment of interactor (log2),"TFB2M, Q9H5Q4",4.79
same,PRISMA enrichment of interactor (log2),"TIMM8B, Q9Y5J9",5.48
same,PRISMA enrichment of interactor (log2),"TNPO3, Q9Y5L0",4.87
same,PRISMA enrichment of interactor (log2),"TPM4, P67936",4.2
same,PRISMA enrichment of interactor (log2),"TXLNG, Q9NUQ3",4.82
same,PRISMA enrichment of interactor (log2),"URB2, Q14146",4.59
same,PRISMA enrichment of interactor (log2),"USP7, Q93009",4.7
ECSPPTFPALCGHLI [RP11-432J24.5_2],PRISMA enrichment of interactor (log2),"ACOT9, Q9Y305",5.61
same,PRISMA enrichment of interactor (log2),"CBX3, Q13185",7.79
same,PRISMA enrichment of interactor (log2),"CSDE1, O75534",5.79
same,PRISMA enrichment of interactor (log2),"DIS3, Q9Y2L1",6.92
same,PRISMA enrichment of interactor (log2),"FOCAD, Q5VW36",3.77
same,PRISMA enrichment of interactor (log2),"HAT1, O14929",5.78
same,PRISMA enrichment of interactor (log2),"PFKM, P08237",4.57
same,PRISMA enrichment of interactor (log2),[1],5.61
same,PRISMA enrichment of interactor (log2),"PYCR1, P32322",4.81
same,PRISMA enrichment of interactor (log2),"RCC2, Q9P258",6.01
same,PRISMA enrichment of interactor (log2),"SPCS2, Q15005",4.84
same,PRISMA enrichment of interactor (log2),"ZNF317, Q96PQ6",3.82

# 2 records picked at random from those above:
binder,measurement,setting,value
SELVLPQSQAGKPLT [NAV2-AS2_2],PRISMA enrichment of interactor (log2),"CSNK2B, P67870",4.46
ECSPPTFPALCGHLI [RP11-432J24.5_2],PRISMA enrichment of interactor (log2),"PYCR1, P32322",4.81
